No constants are given. Whether binding was seen depends on the method and setting. A result given as binding can be weak or reduced; the word gives no strength.

For this assay, the target named is recombinant GAP1. As to the kind of experiment: ELISA; competitive ELISA with recombinant livin, GAP1 and Ras; GAP1 pre-exposed to livin at indicated concentrations, then binding between Ras and GAP1 read; both purified. A general note: An ELISA detects its analyte on a solid surface through an enzyme-linked reagent.

B1: recombinant livin (protein, UniProt Q96CA5 1-298)
chain: MGPKDSAKCLHRGPQPSHWAAGDGPTQERCGPRSLGSPVLGLDTCRAWDHVDGQILGQLRPLTEEEEEEGAGATLSRGPAFPGMGSEELRLASFYDWPLTAEVPPELLAAAGFFHTGHQDKVRCFFCYGGLQSWKRGDDPWTEHAKWFPSCQFLLRSKGRDFVHSVQETHSQLLGSWDPWEEPEDAAPVAPSVPASGYPELPTPRREVQSESAQEPGGVSPAEAQRAWWVLEPPGARDVEAQLRRLQEERTCKVCLDRAVSIVFVPCGHLVCAECAPGLQLCPICRAPVRSRVRTFLS
Consider B1, for which the binding entry is “binds”.

(Values after publication PMC8193260.)
